# Assay results taken from the supplement of paper PMC12067093, “Discovery and optimisation of a covalent ligand for TRIM25 and its application to targeted protein ubiquitination” (Chemical Science, 2025).
# The list shows a part of the results.
# Compound: CC1Cc2ccccc2N1C(=O)C1CCCN(C1)C(=O)CCl (mixture of isomers) [TRIM25 ligand 11 (diastereomer mixture)]
# Experiment: probe-labelled cysteine peptide fold change vs DMSO (competition) (log2 fold change); higher = less target engagement (more negative = stronger competition)
# Conditions: THP-1, incubation time: 4 h
# 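Note: competitive chemoproteomic profiling in live THP-1 cells with an iodoacetamide desthiobiotin (IA-DTB) probe, comparing probe-labelled peptide intensities in compound-treated cells against DMSO-treated controls.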
Target,probe-labelled cysteine peptide fold change (10 µM),probe-labelled cysteine peptide fold change (50 µM)
PSMF1_Q92530_17_AGLEVLFASAAPAITCR (UniProt Q92530),-0.162,-0.234
PSMD11_O00231_202_TTANAIYCPPK (UniProt O00231),-0.0391,-0.0508
PTPRC_P08575_1261_QDANCVNPLGAPEKLPEAK (UniProt P08575),-0.175,-0.245
PSME1_Q06323_22_VDVFREDLCTK (UniProt Q06323),-0.0529,-0.129
PTPN3_P26045_206_QSEAESCYINIAR (UniProt P26045),0.0614,0.0775
PSMD2_Q13200_779_GTLTLCPYHSDR (UniProt Q13200),0.0966,0.131
PTGES3_Q15185_20_DYVFIEFCVEDSK (UniProt Q15185),0.12,0.0272
PTER_Q96BW5_164_CGIIGEIGCSWPLTESERK (UniProt Q96BW5),0.0066,-0.0414
PSMD5_Q16401_412_GISSQPFPELHCAALK (UniProt Q16401),0.0827,0.107
PTCD3_Q96EY7_551_DKHPPELQVAFADCAADIK (UniProt Q96EY7),-0.153,-0.12
PTER_Q96BW5_196_VLQATAHAQAQLGCPVIIHPGR (UniProt Q96BW5),0.172,0.203
PTPN6_P29350_453_QESLPHAGPIIVHCSAGIGR (UniProt P29350),0.324,0.175
PTK2B_Q14289_395_RSHLSESCSIESDIYAEIPDETLR (UniProt Q14289),0.0139,0.214
PTBP1_P26599_251_LSLDGQNIYNACCTLR (UniProt P26599),-0.158,0.24
PTPN9_P43378_567_AFSIQTPEQYYFCYK (UniProt P43378),-0.148,-0.195
PSMD2_Q13200_459_NECDPALALLSDYVLHNSNTMR (UniProt Q13200),0.172,-0.451
PTPRC_P08575_367_CDSEILYNNHK (UniProt P08575),0.0662,-0.00564
PSMA5_P28066_165_GPQLFHMDPSGTFVQCDAR (UniProt P28066),0.149,-0.0584
PSMD4_P55036_9_VLESTMVCVDNSEYMR (UniProt P55036),0.187,-0.0795
PTPN23_Q9H3S7_65_DFEGCSVLR (UniProt Q9H3S7),-0.0994,-0.0472
PTPRC_P08575_1072_HGDQEICAQYWGEGK (UniProt P08575),0.201,0.122
PTPRE_P23469_244_CHQYWPDQGCWTYGNIR (UniProt P23469),0.132,0.306

Target,probe-labelled cysteine peptide fold change (10 µM),probe-labelled cysteine peptide fold change (50 µM)
PTPN1_P18031_32_SGSWAAIYQDIRHEASDFPCR (UniProt P18031),-0.211,-0.177
PSMD14_O00487_120_QTGRPEMVVGWYHSHPGFGCWLSGVDINTQQSFEALSER (UniProt O00487),-0.0288,-0.0756
PSMA2_P25787_213_ESFEGQMTEDNIEVGICNEAGFRR (UniProt P25787),-0.228,-0.248
PTPRF_P10586_54_VPEDQTGLSGGVASFVCQATGEPKPR (UniProt P10586),-0.002,-0.14
PSMD2_Q13200_139_FAADIISVLAMTMSGERECLK (UniProt Q13200),-0.214,-0.295
PTPRC_P08575_1169_STPLLIHCR (UniProt P08575),-0.00678,0.0204
PTPRC_P08575_400_TDFGSPGEPQIIFCR (UniProt P08575),0.192,0.272
PSMC2_P35998_377_LCPNSTGAEIR (UniProt P35998),0.115,0.0762
PSMB2_P49721_91_RNLADCLR (UniProt P49721),-0.136,-0.0686
PSMA7_O14818_91_VECQSHR (UniProt O14818),0.116,0.145
PSMB3_P49720_19_NCVAIAADRR (UniProt P49720),0.0375,0.0434
PSMA1_P25786_182_HMSEFMECNLNELVK (UniProt P25786),0.29,-0.174
PTPN12_Q05209_724_CDHPAGGIHYEMCIECPPTFSDK (UniProt Q05209),0.242,-0.0675
PSMA6_P60900_47_DCAVIVTQK (UniProt P60900),0.061,0.127
PSMD4_P55036_87_ITFCTGIR (UniProt P55036),-0.00598,0.0893
PSME4_Q14997_637_CCPEESLK (UniProt Q14997),0.064,0.017
PTPRC_P08575_434_DCLNLDK (UniProt P08575),-0.0373,0.0982
PSMC3IP_Q9P2W1_107_VQSLQQSCR (UniProt Q9P2W1),0.0463,0.134
PSMC4_P43686_210_QIGIDPPRGVLMYGPPGCGK (UniProt P43686),-0.529,-0.421
PSMB5_P28074_161_GMGLSMGTMICGWDK (UniProt P28074),0.0566,0.0365
PSMA5_P28066_76_IVEIDAHIGCAMSGLIADAK (UniProt P28066),0.0116,-0.0441
PSMA4_P25789_107_YLLQYQEPIPCEQLVTALCDIK (UniProt P25789),0.333,0.151

Target,probe-labelled cysteine peptide fold change (10 µM),probe-labelled cysteine peptide fold change (50 µM)
PSMD13_Q9UNM6_276_KIQLLCLMEMTFTR (UniProt Q9UNM6),-0.226,0.282
PTPRJ_Q12913_1294_MHRPLMVQTEDQYVFLNQCVLDIVR (UniProt Q12913),0.063,0.123
PSMC3_P17980_396_CTDDFNGAQCK (UniProt P17980),-0.0195,0.013
PTGES3_Q15185_75_SILCCLR (UniProt Q15185),0.0652,0.0446
PTPN1_P18031_344_EETQEDKDCPIK (UniProt P18031),-0.316,-0.383
PSMC3_P17980_387_CTDDFNGAQCK (UniProt P17980),0.0274,0.067
PSMC5_P62195_112_NIDINDVTPNCR (UniProt P62195),-0.0865,-0.0343
PSMD2_Q13200_448_SGALLACGIVNSGVR (UniProt Q13200),-0.0465,-0.0191
PSMA7_O14818_63+70_ICALDDNVCMAFAGLTADAR (UniProt O14818),-0.148,0.151
PSMG1_O95456_235_IPAILYLCYTDVMK (UniProt O95456),0.385,0.371
PSMB10_P40306_17_GGFSFENCQR (UniProt P40306),-0.0615,-0.17
PSME4_Q14997_1267_EWESSCFVEK (UniProt Q14997),-0.0479,0.064
PTGFRN_Q9P2B2_571_PFFAAGNTFEMTCK (UniProt Q9P2B2),-0.22,-0.0941
PUM1_Q14671_1007_GQVFALSTHPYGCR (UniProt Q14671),0.0773,-0.000816
PSME2_Q9UL46_91_CGFLPGNEK (UniProt Q9UL46),-0.166,-0.195
PSMC2_P35998_389_SVCTEAGMFAIR (UniProt P35998),-0.00859,-0.0262
PTCD2_Q8WV60_67_VAVACNLSGTK (UniProt Q8WV60),0.051,-0.0423
PTPRF_P10586_1582_TVDIYGHVTCMR (UniProt P10586),9.14e-06,0.148
PSD4_Q8NDX1_705_SMSCQEFITNLNGLR (UniProt Q8NDX1),-0.0398,-0.0629
PSMD6_Q15008_112_AEYLCR (UniProt Q15008),-0.0986,-0.0272
PTK2B_Q14289_972_LAQQNAVTSLSEECKR (UniProt Q14289),-0.0239,0.0276
PTPRC_P08575_762_CAEYWPSMEEGTR (UniProt P08575),-0.0546,-0.192

# Taken from above.
# PSMA7_O14818_63+70_ICALDDNVCMAFAGLTADAR (UniProt O14818) | probe-labelled cysteine peptide fold change (10 µM): -0.148
# PTGES3_Q15185_75_SILCCLR (UniProt Q15185) | probe-labelled cysteine peptide fold change (50 µM): 0.0446
# PTGFRN_Q9P2B2_571_PFFAAGNTFEMTCK (UniProt Q9P2B2) | probe-labelled cysteine peptide fold change (50 µM): -0.0941

# Remaining list, next part:

Target,probe-labelled cysteine peptide fold change (10 µM),probe-labelled cysteine peptide fold change (50 µM)
PSPH_P78330_38_ICGVEDAVSEMTR (UniProt P78330),0.194,-0.00278
PTPMT1_Q8WUK0_127+132_YQSLGQCVYVHCK (UniProt Q8WUK0),0.189,0.019
PTCD1_O75127_565_GLVPNLQTFCNLAIGCHRPK (UniProt O75127),-0.241,-0.0532
PSME4_Q14997_459_TYPALETLTEPHQLTATLSCVIGVAR (UniProt Q14997),0.00101,0.0556
PTPRC_P08575_610_SCNLDEQQELVERDDEK (UniProt P08575),-0.0215,-0.0457
PSMD12_O00232_108+109_MVQQCCTYVEEITDLPIK (UniProt O00232),-0.214,-0.0992
PTGFRN_Q9P2B2_429_VPGFADDPTELACR (UniProt Q9P2B2),0.15,0.0482
PTPRC_P08575_789_CPDYIIQK (UniProt P08575),0.097,-0.0539
PTPN23_Q9H3S7_116_SVAHEDIKYEQACILYNLGALHSMLGAMDKR (UniProt Q9H3S7),-0.115,-0.138
PSME4_Q14997_820_DDILQSLTIVHNCLIGSGNLLPPLK (UniProt Q14997),0.059,-0.00648
PTTG1IP_P53801_81_ACLDYPVTSVLPPASLCK (UniProt P53801),-0.074,-0.198
PTPN1_P18031_32_HEASDFPCR (UniProt P18031),0.156,-0.0443
PSMD9_O00233_59_GIGMNEPLVDCEGYPR (UniProt O00233),-0.158,-0.401
PSMD2_Q13200_139_RFAADIISVLAMTMSGERECLK (UniProt Q13200),-0.22,-0.194
PTK2B_Q14289_661_CWDYDPSDRPR (UniProt Q14289),0.011,-0.00536
PTPRC_P08575_1261_QDANCVNPLGAPEK (UniProt P08575),0.0558,0.00634
PSMC5_P62195_209_AVAHHTDCTFIR (UniProt P62195),0.13,0.11
PSMD4_P55036_37_LQAQQDAVNIVCHSK (UniProt P55036),-0.126,-0.145
PSMB3_P49720_19_NCVAIAADR (UniProt P49720),0.205,0.0837
